# The list shows a part of the results.
# B1: NK11 (Sus scrofa) (peptide)
# chain: KISKRILTGKK
# Tests used:
# Test in all cases: glycan array binding signal (z-score within array); higher = stronger binding
# Conditions in all cases: glycan notation: IUPAC condensed, linker removed
# [1] = molecular target: Neu5Ac(a2-3)Gal(b1-4)[Fuc(a1-3)]GlcNAc(b1-3)Gal
# Method in brief: (§1)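 Glycan array data came from 3228 arrays in the Consortium for Functional Glycomics database, and only arrays with an available protein sequence were kept. Glycan names were put into IUPAC-condensed notation, and columns mapping to the same glycan were averaged. The binding signal is a within-array Z-score, averaged across arrays of one protein sequence run at different concentrations or buffers and across linkers. A negative Z-score can be read as non-binding.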
# [2] = molecular target: Neu5Ac(a2-3)Gal(b1-4)[Fuc(a1-3)]GlcNAc(b1-3)Gal(b1-4)GlcNAc
# Method in brief: as §1
# [3] = molecular target: Neu5Ac(a2-3)Gal(b1-4)[Fuc(a1-3)]GlcNAc(b1-3)Gal(b1-4)[Fuc(a1-3)]GlcNAc(b1-3)Gal(b1-4)[Fuc(a1-3)]GlcNAc
# Method in brief: as §1
# [4] = molecular target: Neu5Ac(a2-3)Gal(b1-4)[Fuc(a1-3)]GlcNAc(b1-3)GalNAc
# Method in brief: as §1
# [5] = molecular target: Neu5Ac(a2-3)Gal(b1-4)[Fuc(a1-3)]GlcNAc(b1-6)[Gal(b1-3)]GalNAc
# Method in brief: as §1
# [6] = molecular target: Neu5Ac(a2-3)Gal(b1-4)[Fuc(a1-3)]GlcNAc(b1-6)[Neu5Ac(a2-3)Gal(b1-3)]GalNAc
# Method in brief: as §1
# [7] = molecular target: Neu5Ac(a2-3)Gal(b1-4)[Fuc(a1-3)]GlcNAc6S
# Method in brief: as §1
# [8] = molecular target: Neu5Ac(a2-3)Gal6S(b1-4)GlcNAc
# Method in brief: as §1
# [9] = molecular target: Neu5Ac(a2-3)Gal6S(b1-4)[Fuc(a1-3)]GlcNAc
# Method in brief: as §1
# [10] = molecular target: Neu5Ac(a2-3)GalNAc
# Method in brief: as §1
# [11] = molecular target: Neu5Ac(a2-3)GalNAc(b1-4)GlcNAc
# Method in brief: as §1
# [12] = molecular target: Neu5Ac(a2-3)[GalNAc(b1-4)]Gal(b1-4)Glc
# Method in brief: as §1
# [13] = molecular target: Neu5Ac(a2-3)[GalNAc(b1-4)]Gal(b1-4)GlcNAc
# Method in brief: as §1
# [14] = molecular target: Neu5Ac(a2-3)[GalNAc(b1-4)]Gal(b1-4)GlcNAc(b1-3)GalNAc
# Method in brief: as §1
# [15] = molecular target: Neu5Ac(a2-3)[Neu5Ac(a2-6)]GalNAc
# Method in brief: as §1
# [16] = molecular target: Neu5Ac(a2-6)Gal
# Method in brief: as §1
# [17] = molecular target: Neu5Ac(a2-6)Gal(b1-3)GlcNAc(b1-3)[Gal(b1-4)GlcNAc(b1-6)]Gal(b1-4)Glc
# Method in brief: as §1
# [18] = molecular target: Neu5Ac(a2-6)Gal(b1-4)Glc
# Method in brief: as §1
# [19] = molecular target: Neu5Ac(a2-6)Gal(b1-4)GlcNAc
# Method in brief: as §1
# [20] = molecular target: Neu5Ac(a2-6)Gal(b1-4)GlcNAc(b1-2)Man
# Method in brief: as §1
# [21] = molecular target: Neu5Ac(a2-6)Gal(b1-4)GlcNAc(b1-2)Man(a1-3)Man(b1-4)GlcNAc(b1-4)GlcNAc
# Method in brief: as §1
# [22] = molecular target: Neu5Ac(a2-6)Gal(b1-4)GlcNAc(b1-2)Man(a1-3)[Gal(b1-4)GlcNAc(b1-2)Man(a1-6)]Man(b1-4)GlcNAc(b1-4)GlcNAc
# Method in brief: as §1
# [23] = molecular target: Neu5Ac(a2-6)Gal(b1-4)GlcNAc(b1-2)Man(a1-3)[GlcNAc(b1-2)Man(a1-6)]Man(b1-4)GlcNAc(b1-4)GlcNAc
# Method in brief: as §1
# [24] = molecular target: Neu5Ac(a2-6)Gal(b1-4)GlcNAc(b1-2)Man(a1-3)[GlcNAc(b1-2)Man(b1-4)GlcNAc(b1-2)Man(a1-6)]Man(b1-4)GlcNAc(b1-4)GlcNAc
# Method in brief: as §1
# [25] = molecular target: Neu5Ac(a2-6)Gal(b1-4)GlcNAc(b1-2)Man(a1-3)[GlcNAc(b1-4)][Neu5Ac(a2-6)Gal(b1-4)GlcNAc(b1-2)Man(a1-6)]Man(b1-4)GlcNAc(b1-4)GlcNAc
# Method in brief: as §1
# [26] = molecular target: Neu5Ac(a2-6)Gal(b1-4)GlcNAc(b1-2)Man(a1-3)[Man(a1-6)]Man(b1-4)GlcNAc(b1-4)GlcNAc
# Method in brief: as §1
# [27] = molecular target: Neu5Ac(a2-6)Gal(b1-4)GlcNAc(b1-2)Man(a1-3)[Neu5Ac(a2-3)Gal(b1-4)GlcNAc(b1-2)Man(a1-6)]Man(b1-4)GlcNAc(b1-4)GlcNAc
# Method in brief: as §1
# [28] = molecular target: Neu5Ac(a2-6)Gal(b1-4)GlcNAc(b1-2)Man(a1-3)[Neu5Ac(a2-6)Gal(b1-4)GlcNAc(b1-2)Man(a1-6)]Man(b1-4)GlcNAc(b1-4)GlcNAc
# Method in brief: as §1
# [29] = molecular target: Neu5Ac(a2-6)Gal(b1-4)GlcNAc(b1-2)Man(a1-3)[Neu5Ac(a2-6)Gal(b1-4)GlcNAc(b1-2)Man(a1-6)]Man(b1-4)GlcNAc(b1-4)[Fuc(a1-6)]GlcNAc
# Method in brief: as §1
# [30] = molecular target: Neu5Ac(a2-6)Gal(b1-4)GlcNAc(b1-2)Man(a1-6)Man(b1-4)GlcNAc(b1-4)GlcNAc
# Method in brief: as §1
# [31] = molecular target: Neu5Ac(a2-6)Gal(b1-4)GlcNAc(b1-2)Man(a1-6)[Gal(b1-4)GlcNAc(b1-2)Man(a1-3)]Man(b1-4)GlcNAc(b1-4)GlcNAc
# Method in brief: as §1
# [32] = molecular target: Neu5Ac(a2-6)Gal(b1-4)GlcNAc(b1-2)Man(a1-6)[GlcNAc(b1-2)Man(a1-3)]Man(b1-4)GlcNAc(b1-4)GlcNAc
# Method in brief: as §1
# [33] = molecular target: Neu5Ac(a2-6)Gal(b1-4)GlcNAc(b1-2)Man(a1-6)[Man(a1-3)]Man(b1-4)GlcNAc(b1-4)GlcNAc
# Method in brief: as §1
# [34] = molecular target: Neu5Ac(a2-6)Gal(b1-4)GlcNAc(b1-2)[Neu5Ac(a2-6)Gal(b1-4)GlcNAc(b1-4)]Man(a1-3)[GlcNAc(b1-4)][Neu5Ac(a2-6)Gal(b1-4)GlcNAc(b1-2)[Neu5Ac(a2-6)Gal(b1-4)GlcNAc(b1-6)]Man(a1-6)]Man(b1-4)GlcNAc(b1-4)GlcNAc
# Method in brief: as §1
# [35] = molecular target: Neu5Ac(a2-6)Gal(b1-4)GlcNAc(b1-2)[Neu5Ac(a2-6)Gal(b1-4)GlcNAc(b1-4)]Man(a1-3)[GlcNAc(b1-4)][Neu5Ac(a2-6)Gal(b1-4)GlcNAc(b1-4)Man(a1-6)]Man(b1-4)GlcNAc(b1-4)GlcNAc
# Method in brief: as §1
# [36] = molecular target: Neu5Ac(a2-6)Gal(b1-4)GlcNAc(b1-2)[Neu5Ac(a2-6)Gal(b1-4)GlcNAc(b1-6)]Man(a1-6)[Neu5Ac(a2-6)Gal(b1-4)GlcNAc(b1-2)Man(a1-3)][GlcNAc(b1-4)]Man(b1-4)GlcNAc(b1-4)GlcNAc
# Method in brief: as §1
# [37] = molecular target: Neu5Ac(a2-6)Gal(b1-4)GlcNAc(b1-3)Gal(b1-3)GlcNAc
# Method in brief: as §1
# [38] = molecular target: Neu5Ac(a2-6)Gal(b1-4)GlcNAc(b1-3)Gal(b1-4)GlcNAc
# Method in brief: as §1
# [39] = molecular target: Neu5Ac(a2-6)Gal(b1-4)GlcNAc(b1-3)Gal(b1-4)GlcNAc(b1-2)Man(a1-3)[Neu5Ac(a2-6)Gal(b1-4)GlcNAc(b1-3)Gal(b1-4)GlcNAc(b1-2)Man(a1-6)]GalNAc
# Method in brief: as §1
# [40] = molecular target: Neu5Ac(a2-6)Gal(b1-4)GlcNAc(b1-3)Gal(b1-4)GlcNAc(b1-3)Gal(b1-4)GlcNAc
# Method in brief: as §1
# [41] = molecular target: Neu5Ac(a2-6)Gal(b1-4)GlcNAc(b1-3)Gal(b1-4)GlcNAc(b1-3)Gal(b1-4)GlcNAc(b1-2)Man(a1-3)[Neu5Ac(a2-6)Gal(b1-4)GlcNAc(b1-3)Gal(b1-4)GlcNAc(b1-3)Gal(b1-4)GlcNAc(b1-2)Man(a1-6)]GalNAc
# Method in brief: as §1
# [42] = molecular target: Neu5Ac(a2-6)Gal(b1-4)GlcNAc(b1-3)Gal(b1-4)GlcNAc(b1-3)GalNAc
# Method in brief: as §1
# [43] = molecular target: Neu5Ac(a2-6)Gal(b1-4)GlcNAc(b1-3)Gal(b1-4)GlcNAc(b1-3)[Neu5Ac(a2-6)Gal(b1-4)GlcNAc(b1-3)Gal(b1-4)GlcNAc(b1-6)]GalNAc
# Method in brief: as §1
binder,measurement,setting,value
B1,glycan array binding signal (z-score),[1],0.515
same,glycan array binding signal (z-score),[2],1.26
same,glycan array binding signal (z-score),[3],-0.24
same,glycan array binding signal (z-score),[4],-0.082
same,glycan array binding signal (z-score),[5],0.805
same,glycan array binding signal (z-score),[6],-0.509
same,glycan array binding signal (z-score),[7],3.52
same,glycan array binding signal (z-score),[8],0.01
same,glycan array binding signal (z-score),[9],-0.648
same,glycan array binding signal (z-score),[10],0.489
same,glycan array binding signal (z-score),[11],-0.092
same,glycan array binding signal (z-score),[12],0.631
same,glycan array binding signal (z-score),[13],-0.361
same,glycan array binding signal (z-score),[14],0.366
same,glycan array binding signal (z-score),[15],0.401
same,glycan array binding signal (z-score),[16],0.411
same,glycan array binding signal (z-score),[17],-0.989
same,glycan array binding signal (z-score),[18],-0.083
same,glycan array binding signal (z-score),[19],-0.251
same,glycan array binding signal (z-score),[20],0.52
same,glycan array binding signal (z-score),[21],0.127
same,glycan array binding signal (z-score),[22],0.065
same,glycan array binding signal (z-score),[23],-0.159
same,glycan array binding signal (z-score),[24],2.33
same,glycan array binding signal (z-score),[25],0.699
same,glycan array binding signal (z-score),[26],1.52
same,glycan array binding signal (z-score),[27],0.829
same,glycan array binding signal (z-score),[28],0.33
same,glycan array binding signal (z-score),[29],1.51
same,glycan array binding signal (z-score),[30],0.644
same,glycan array binding signal (z-score),[31],-0.315
same,glycan array binding signal (z-score),[32],-0.149
same,glycan array binding signal (z-score),[33],0.216
same,glycan array binding signal (z-score),[34],-1.88
same,glycan array binding signal (z-score),[35],0.035
same,glycan array binding signal (z-score),[36],0.24
same,glycan array binding signal (z-score),[37],0.145
same,glycan array binding signal (z-score),[38],-0.531
same,glycan array binding signal (z-score),[39],-1.13
same,glycan array binding signal (z-score),[40],0.163
same,glycan array binding signal (z-score),[41],0.477
same,glycan array binding signal (z-score),[42],-0.801
same,glycan array binding signal (z-score),[43],2.39

# Taken from the entries so far (four entries):
binder,measurement,setting,value
B1,glycan array binding signal (z-score),[12],0.631
same,glycan array binding signal (z-score),[13],-0.361
same,glycan array binding signal (z-score),[14],0.366
same,glycan array binding signal (z-score),[15],0.401

# — the supplement of paper PMC8728848
